Data as given in PubChem BioAssay AID504764 (Drosophila RNAi Screening Center, 2011)
In all, the deposit lists about 22,000 reagents; below is a random part of those that have a named target and a result. In the full data, 403 (1.9%) were called active. 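Unnormalised raw counts per well; ratio z-scores behind the hit calls and whether each hit raises or lowers signal are not deposited.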 The record does not give: the amount of reagent.

- Assay: 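Genome-wide screen for regulators of Notch-driven gene expression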 (primary screen)
- Cells: Drosophila Kc167 cells
- Reagents: long dsRNA against Drosophila genes
- Time to read-out: about 5 days (4 days dsRNA, then 24 h after transfection)
- Conditions: transfection of constitutively active membrane-tethered Notch lacking the extracellular domain, read 24 h later
- Detection: 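Firefly luciferase from an E(spl)m3 reporter with active Notch, plus control-promoter and uninduced reporter wells for normalisation; unnormalised counts, duplicate wells a and b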
- Reading the numbers: induced reporter light, run 1, well a and induced reporter light, run 1, well b: higher = more light from the Notch target reporter with active Notch; control promoter light, run 1, well a and control promoter light, run 1, well b: higher = more light from the viral control promoter (cell number, transfection, viability); uninduced reporter light, run 1, well a: higher = more light from the Notch target reporter without active Notch
- Call rule: 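Hit if the duplicate-averaged log2 ratio of induced to control-promoter light gives a plate-wise z beyond ±2, or induced to uninduced beyond ±1.8; weak-control or discordant-duplicate wells dropped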
- Calls: active = modifier hit (raised or lowered Notch signal); inactive = not a hit

no.	Gene	DRSC id	induced reporter light, run 1, well a	induced reporter light, run 1, well b	control promoter light, run 1, well a	control promoter light, run 1, well b	uninduced reporter light, run 1, well a	Outcome
1	Spn38F (Serpin 38F)	DRSC03616	64405	49435	59365	54155	3755	inactive
2	ey (eyeless)	DRSC17173	96740	92830	1.53e5	1.63e5	7235	inactive
3	Vti1b (Vesicle transport through interaction with t-SNAREs 1b)	DRSC16283	1.75e5	2.03e5	2.26e5	2.13e5	19270	inactive
4	Vti1b (Vesicle transport through interaction with t-SNAREs 1b)	DRSC16284	1.62e5	1.50e5	2.27e5	2.05e5	13142	inactive
5	CG7737	DRSC07033	2.16e5	2.10e5	2.13e5	1.86e5	15785	inactive
6	en (engrailed)	DRSC07609	1.09e5	1.22e5	1.50e5	1.52e5	11580	inactive
7	Tnpo (Transportin)	DRSC11309	62015	59325	43840	15920	3840	inactive
8	beat-VII (beaten path VII)	DRSC13780	1.63e5	1.98e5	1.93e5	1.91e5	16600	inactive
9	beat-VII (beaten path VII)	DRSC14743	1.45e5	1.08e5	1.75e5	1.24e5	11445	inactive
10	beat-VII (beaten path VII)	DRSC14744	1.27e5	1.38e5	1.53e5	1.54e5	12560	inactive
11	PLCXD	DRSC02427	1.42e5	1.41e5	1.47e5	1.66e5	13385	inactive

Sorted by “induced reporter light, run 1, well b” (lowest first): some entries from above.
Gene	DRSC id	induced reporter light, run 1, well a	induced reporter light, run 1, well b	control promoter light, run 1, well a	control promoter light, run 1, well b	uninduced reporter light, run 1, well a	Outcome
Tnpo (Transportin)	DRSC11309	62015	59325	43840	15920	3840	inactive
beat-VII (beaten path VII)	DRSC13780	1.63e5	1.98e5	1.93e5	1.91e5	16600	inactive

Continued:
no.	Gene	DRSC id	induced reporter light, run 1, well a	induced reporter light, run 1, well b	control promoter light, run 1, well a	control promoter light, run 1, well b	uninduced reporter light, run 1, well a	Outcome
12	p38c (p38c MAP kinase)	DRSC22939						inactive
13	CG13458	DRSC10005	1.15e5	1.07e5	65080	71215	10155	inactive
14	Gbeta13F (G protein beta subunit 13F)	DRSC20247	1.48e5	1.67e5	2.39e5	2.55e5	11750	inactive
15	Ppn (Papilin)	DRSC15328	1.40e5	1.26e5	1.87e5	1.72e5	10975	inactive
16	CG8388	DRSC07157	1.20e5	1.14e5	1.32e5	1.52e5	9420	inactive
17	CG34196	DRSC05704	1.35e5	1.34e5	1.77e5	1.20e5	10565	inactive
18	tgy (twiggy)	DRSC20045	73595	1.07e5	1.03e5	1.19e5	10605	inactive
19	CG15408	DRSC00423	1.47e5	1.43e5	1.66e5	1.68e5	11000	inactive
20	Gyc32E (Guanylyl cyclase at 32E)	DRSC01154	82975	1.09e5	1.14e5	1.13e5	7565	inactive
